Test results reported in US20050220996A1, “Process for coating a pharmaceutical particle” (priority 2002, published 2005).
Some of these results come from one statement about several compounds together. At least one structure is not confirmed: it was looked up by name or label, or the drawing left a doubt.

Details: tablets, water, 50 rpm (FIG. 8)

For `Cn1c(=O)c2c(ncn2C)n(C)c1=O` [Uncoated, Caffeine], the “time within which almost all the drug came out” value was ≤ 20 min.
